Laboratory results reported in PubChem BioAssay (EPA / NIEHS).
The inconclusive results got no clear call from the source; some entries with a clear call stand among them for comparison. Potencies of inconclusive entries are doubtful fits and often do not repeat. Active and inactive are the calls of the source. How the source made its calls: active means hit-call score of the fitted dose curve at least 0.9, where 1 is the maximum; inconclusive means response in the unintended direction; inactive means score below 0.9.

Sequences of proteins named here, by UniProt entry; tags and fusion partners are left off. A change or cut given only in a name is not applied to a line headed by its entry.
UniProt Q9UNQ0: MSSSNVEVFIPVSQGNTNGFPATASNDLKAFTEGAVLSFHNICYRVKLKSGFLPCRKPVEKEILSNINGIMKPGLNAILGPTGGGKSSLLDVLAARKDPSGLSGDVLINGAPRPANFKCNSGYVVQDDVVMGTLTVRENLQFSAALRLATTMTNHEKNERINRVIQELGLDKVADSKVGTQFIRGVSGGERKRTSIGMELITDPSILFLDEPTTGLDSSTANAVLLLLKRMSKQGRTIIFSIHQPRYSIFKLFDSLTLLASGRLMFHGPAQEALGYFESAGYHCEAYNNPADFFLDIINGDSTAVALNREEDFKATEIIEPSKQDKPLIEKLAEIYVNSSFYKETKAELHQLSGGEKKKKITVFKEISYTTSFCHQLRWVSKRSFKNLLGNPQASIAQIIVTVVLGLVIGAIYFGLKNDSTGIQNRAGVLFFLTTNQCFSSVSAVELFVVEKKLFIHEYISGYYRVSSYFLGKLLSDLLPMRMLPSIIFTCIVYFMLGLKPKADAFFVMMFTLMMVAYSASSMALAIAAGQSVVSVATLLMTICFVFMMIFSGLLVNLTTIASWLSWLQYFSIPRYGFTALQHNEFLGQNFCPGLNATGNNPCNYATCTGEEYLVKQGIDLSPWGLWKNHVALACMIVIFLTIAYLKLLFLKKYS

System: not listed separately
Experiment: Tanguay_ZF_120hpf_NC_legacy: (Legacy) Oregon State University Tanguay Lab 120 Hour Post-fertilization zebrafish Assay for Notochord and Tail Malformation (AID 2283656)
Method in brief: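 Dechorionated 5D zebrafish, 1/well from 6 hpf; static exposure to 120 hpf, 28C, sealed, dark; final DMSO 0.64% v/v. NC scored binary (present/absent); dead embryos not scored. Fit vs DMSO baseline, gain direction.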

Q: Which AC50 does the source give for `CCCCCCOCCO` here?
A: The AC50 was inconclusive: 13.3 µM.

Q: Which AC50 does the source give for `COc1ccc(OC(F)(F)F)cc1CN[C@H]1CCCN[C@H]1c1ccccc1` here?
A: The AC50 was inconclusive: 11.4 µM.

Q: For `O=C(O)c1cccc(Oc2ccccc2)c1`, which AC50 is on record?
A: Its AC50 is inconclusive: 53.2 µM.

Q: Which AC50 does the source give for `O=C=NCCCCCCN=C=O` here?
A: Its AC50 is inconclusive: 27.1 µM.

Q: For `CCCCCCCCCCCO`, which AC50 is on record?
A: The AC50 was inconclusive: 26.1 µM.

Q: For `OC12N=C(c3ccccc3)SC1Cc1cc(Cl)ccc12` (stereo not given), which AC50 is on record?
A: Its AC50 is inconclusive: 74.3 µM.

Q: Which outcome does the source give for `CN1CCN(c2ccccc2/C=C2\SCCN(c3ccc(Cl)c(Cl)c3)C2=O)CC1` here?
A: Its outcome is “inactive”.

Q: Which AC50 does the source give for `Cc1cc(CCN2CCN(c3nsc4ccccc34)CC2)cc2c1NC(=O)CC2(C)C` here?
A: The AC50 was active: 4.88 µM.

Q: With `CC[C@@H]1C[C@H](N(Cc2cc(C(F)(F)F)cc(C(F)(F)F)c2)C(C)=O)c2cc(C(F)(F)F)ccc2N1C(=O)OC(C)C` as the compound, how does the AC50 read?
A: Its AC50 is inconclusive: 31.1 µM.

Q: For `Cc1ccc(N)cc1O`, which outcome is on record?
A: The outcome was “inactive”.

Read-out: ABC Transporter (ABCB1), ABCB1 (gene 5243)
Experiment: CLD_ABCB1_6hr: CellzDirect (CLD) Gene Expression Assay for ABC Transporter (ABCB1) at 6 hours (AID 2283659);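 on outcome: hits raise ABCB1 transcript above the DMSO vehicle baseline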
Method in brief: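 Primary human hepatocytes (two donor preparations) dosed daily for two days with chemicals at multiple concentrations, 0.2% DMSO vehicle; harvested 6 h post-dose. ABCB1 mRNA induction quantified by qNPA chemiluminescence; gain-of-signal fitted versus DMSO.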

Q: For `Cc1nn(C)c(Oc2ccccc2)c1C=NOCc1ccc(C(=O)OC(C)(C)C)cc1`, which AC50 is on record?
A: Its AC50 is inconclusive: 20 µM.

Q: Which AC50 does the source give for `CCCCOC(=O)C(C)Oc1ccc(Oc2ccc(C(F)(F)F)cn2)cc1` (stereo not given) here?
A: Its AC50 is inconclusive: 0.000494 µM.

Q: For `O=C(O)C1(C(=O)Nc2ccc(Cl)cc2Cl)CC1`, which AC50 is on record?
A: Its AC50 is inconclusive: 20 µM.

Q: Which AC50 does the source give for `CCOC(=O)C(C)Oc1ccc(Oc2cnc3cc(Cl)ccc3n2)cc1` (stereo not given) here?
A: The AC50 was inconclusive: 20 µM.

Q: With `CC1(C)C(C=C(Cl)Cl)C1C(=O)OCc1cccc(Oc2ccccc2)c1` (stereo not given) as the compound, how does the AC50 read?
A: The AC50 was inconclusive: 0.195 µM.

Q: With `CSC(=O)c1cccc2nnsc12` as the compound, how does the outcome read?
A: The outcome was “inactive”.

Read-out: Broad substrate specificity ATP-binding cassette transporter ABCG2 (Homo sapiens) (UniProt Q9UNQ0)
Experiment: CLD_ABCG2_6hr: CellzDirect (CLD) Gene Expression Assay for ABC Transporter (ABCG2) at 6 hours (AID 2283660)
Method in brief: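 Primary human hepatocytes dosed daily with chemicals at multiple concentrations (0.2% DMSO vehicle), harvested 6 h after dosing. ABCG2 mRNA induction read by quantitative nuclease protection assay (qNPA) chemiluminescence; gain of signal fitted against DMSO baseline.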

Q: Which outcome does the source give for `Cc1nn(C)c(Oc2ccccc2)c1C=NOCc1ccc(C(=O)OC(C)(C)C)cc1` here?
A: The outcome was “inactive”.

Q: With `CCCCOC(=O)C(C)Oc1ccc(Oc2ccc(C(F)(F)F)cn2)cc1` (stereo not given) as the compound, how does the AC50 read?
A: Its AC50 is inconclusive: 20 µM.

Q: For `CSC(=O)c1cccc2nnsc12`, which AC50 is on record?
A: Its AC50 is inconclusive: 20 µM.

Read-out: xenobiotic metabolism (CYP2C9), CYP2C9 (gene 1559)
Experiment: CLD_CYP2C9_6hr: CellzDirect (CLD) Gene Expression Assay for xenobiotic metabolism (CYP2C9) at 6 hours (AID 2283664)
Method in brief: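 Primary human hepatocytes dosed daily with test chemicals at multiple concentrations; harvested at 6 h. CYP2C9 mRNA induction measured by qNPA chemiluminescence. Gain of signal fitted against 0.2% DMSO vehicle; cytotoxicity annotated from phase-contrast morphology.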

Q: With `CCCCOC(=O)[C@@H](C)Oc1ccc(Oc2ccc(C(F)(F)F)cn2)cc1` as the compound, how does the outcome read?
A: Its outcome is “inactive”.

Q: For `Cc1nn(C)c(Oc2ccccc2)c1C=NOCc1ccc(C(=O)OC(C)(C)C)cc1`, which AC50 is on record?
A: The AC50 was inconclusive: 0.0108 µM.

Q: Which AC50 does the source give for `CCCCOC(=O)C(C)Oc1ccc(Oc2ccc(C(F)(F)F)cn2)cc1` (stereo not given) here?
A: Its AC50 is inconclusive: 20 µM.

Q: For `O=C(O)C1(C(=O)Nc2ccc(Cl)cc2Cl)CC1`, which AC50 is on record?
A: Its AC50 is inconclusive: 0.0004 µM.

Q: With `CC1(C)C(C=C(Cl)Cl)C1C(=O)OCc1cccc(Oc2ccccc2)c1` (stereo not given) as the compound, how does the outcome read?
A: Its outcome is “inactive”.

Q: Which AC50 does the source give for `CSC(=O)c1cccc2nnsc12` here?
A: The AC50 was inconclusive: 20 µM.
